Data on four substances can be found in paper doi:10.1101/2022.10.30.514401.

Chains of the proteins cited; added tags and fusions are not shown.
UniProt P46938: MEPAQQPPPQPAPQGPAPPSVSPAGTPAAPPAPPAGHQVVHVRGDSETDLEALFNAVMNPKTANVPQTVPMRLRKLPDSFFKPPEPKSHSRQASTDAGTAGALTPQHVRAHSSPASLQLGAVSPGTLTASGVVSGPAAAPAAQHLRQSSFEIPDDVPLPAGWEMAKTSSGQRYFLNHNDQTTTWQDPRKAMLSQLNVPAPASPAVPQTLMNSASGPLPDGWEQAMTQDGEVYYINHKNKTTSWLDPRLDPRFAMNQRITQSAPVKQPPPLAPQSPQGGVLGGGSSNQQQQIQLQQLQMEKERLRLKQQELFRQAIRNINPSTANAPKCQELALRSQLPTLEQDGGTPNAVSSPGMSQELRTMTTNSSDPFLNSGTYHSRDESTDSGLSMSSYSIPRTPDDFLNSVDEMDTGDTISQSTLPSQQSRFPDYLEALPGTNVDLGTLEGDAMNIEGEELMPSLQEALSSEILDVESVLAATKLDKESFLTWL
UniProt P63101: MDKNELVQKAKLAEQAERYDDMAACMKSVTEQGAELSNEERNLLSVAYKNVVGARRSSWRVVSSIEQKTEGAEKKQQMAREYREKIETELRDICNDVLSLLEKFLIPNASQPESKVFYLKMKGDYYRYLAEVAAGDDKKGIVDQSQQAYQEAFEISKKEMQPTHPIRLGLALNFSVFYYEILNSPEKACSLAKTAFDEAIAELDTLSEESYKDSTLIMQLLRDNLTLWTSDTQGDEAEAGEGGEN
UniProt P62137: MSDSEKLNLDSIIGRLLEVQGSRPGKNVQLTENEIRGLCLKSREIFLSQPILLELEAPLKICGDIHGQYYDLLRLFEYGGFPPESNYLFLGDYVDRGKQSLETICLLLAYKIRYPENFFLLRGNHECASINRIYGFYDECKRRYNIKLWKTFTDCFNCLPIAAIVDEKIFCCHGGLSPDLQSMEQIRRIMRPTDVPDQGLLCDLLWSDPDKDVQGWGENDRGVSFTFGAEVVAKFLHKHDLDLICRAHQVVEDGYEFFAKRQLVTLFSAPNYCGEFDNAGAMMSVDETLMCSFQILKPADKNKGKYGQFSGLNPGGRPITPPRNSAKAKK

Where two headings read alike, the source gives them in different places. Results are given in words; binding and its absence hold for the method and conditions named. In cells and extracts the contact can be indirect. Some entries that bind do so weakly or less than the wild type.

Common to all, as to assay: co-IP
Test [1] addresses T1, Lipolysis-stimulated lipoprotein receptor (LSR) (mouse (endogenous in mouse ISCs)) (UniProt Q99KG5).
T1 sequence: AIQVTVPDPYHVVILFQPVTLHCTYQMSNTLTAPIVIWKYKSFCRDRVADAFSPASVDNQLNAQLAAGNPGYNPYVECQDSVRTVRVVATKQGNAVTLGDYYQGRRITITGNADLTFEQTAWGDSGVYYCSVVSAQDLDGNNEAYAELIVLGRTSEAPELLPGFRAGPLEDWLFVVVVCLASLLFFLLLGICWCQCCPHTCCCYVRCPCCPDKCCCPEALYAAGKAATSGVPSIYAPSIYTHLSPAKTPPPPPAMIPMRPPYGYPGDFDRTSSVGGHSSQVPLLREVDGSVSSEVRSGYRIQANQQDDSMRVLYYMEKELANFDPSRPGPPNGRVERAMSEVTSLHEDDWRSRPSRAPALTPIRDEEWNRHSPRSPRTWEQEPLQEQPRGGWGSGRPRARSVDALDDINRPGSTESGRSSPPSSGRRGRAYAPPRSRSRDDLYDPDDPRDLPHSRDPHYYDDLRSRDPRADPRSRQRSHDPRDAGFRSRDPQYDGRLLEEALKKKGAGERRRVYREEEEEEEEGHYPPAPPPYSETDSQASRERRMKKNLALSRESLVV

For test [2], the target named is YAP (pCMV6-YAP, mouse) (mouse) (UniProt P46938).
Test [3] addresses YAP (mouse (endogenous in mouse ISCs)) (UniProt P46938).
Test [4] has the same target. This is another data set of the same source.

As to 14-3-3 zeta (from UniProt P63101 1-245), the binding entry in test [1] is “binds”.

As to “PPP1CA (pCMV6-Ppp1ca, mouse) (from UniProt P62137 1-330) (enzyme)”, the binding entry in test [2] is listed as “no binding”. Regarding YAP (from UniProt P46938 1-488), the binding result in test [1] was “binds”.

With “protein phosphatase 1 catalytic subunit alpha (PPP1CA) (from UniProt P62137 1-330) (enzyme)”, the binding entry in test [3] and in test [4] was “no binding” throughout.
